## Library screening results

The chains behind the UniProt entries cited, without tags or fusion partners.
UniProt E9BF75, entry or part of it: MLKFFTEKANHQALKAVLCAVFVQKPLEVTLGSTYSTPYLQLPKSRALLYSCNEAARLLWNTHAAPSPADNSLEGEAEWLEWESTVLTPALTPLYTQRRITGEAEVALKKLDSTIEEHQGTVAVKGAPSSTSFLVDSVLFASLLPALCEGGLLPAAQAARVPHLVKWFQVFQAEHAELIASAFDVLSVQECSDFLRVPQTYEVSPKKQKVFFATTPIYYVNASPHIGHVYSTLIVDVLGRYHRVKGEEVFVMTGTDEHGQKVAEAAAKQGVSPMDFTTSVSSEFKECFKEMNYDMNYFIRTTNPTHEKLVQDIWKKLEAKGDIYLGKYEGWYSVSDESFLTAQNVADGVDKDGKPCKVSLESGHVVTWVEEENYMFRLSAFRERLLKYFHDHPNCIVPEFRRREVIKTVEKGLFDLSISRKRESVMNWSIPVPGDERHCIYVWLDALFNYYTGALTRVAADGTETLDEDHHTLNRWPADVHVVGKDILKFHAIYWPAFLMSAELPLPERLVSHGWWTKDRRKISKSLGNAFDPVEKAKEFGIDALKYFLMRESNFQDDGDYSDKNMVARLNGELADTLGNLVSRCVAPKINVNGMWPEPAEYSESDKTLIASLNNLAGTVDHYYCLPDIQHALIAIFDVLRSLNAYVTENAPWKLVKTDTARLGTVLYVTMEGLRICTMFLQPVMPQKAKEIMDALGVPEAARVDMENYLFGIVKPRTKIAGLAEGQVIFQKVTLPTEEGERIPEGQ

Results are percentages, as filed. The controls that fix the scale are not given in the record; negative values are as filed. Compounds were drawn at random from those tested, without regard to their results.

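Methionyl-tRNA synthetase (putative), Leishmania donovani (UniProt E9BF75). Primary screen of methionyl-tRNA synthetase; the read-out is not stated. The test concentration is not given. Values are per cent inhibition. Of about 68,000 compounds tested this way, about 24 (0.035%) reached 50% or more in at least one test.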

Compound,inhibition
O=C(c1cn2ccsc2n1)N1CCOCC(O)(CN2CCCC2)C1 (stereo not shown),4.396
CC(OCC1CC1)C(=O)N1CCCN(c2nc3ccccc3[nH]2)CC1 (stereo not shown),3.125
COc1cc(CNC2CCc3nc(C)nn3C2)cc2c1OCCO2 (stereo not shown),7.087
Cc1nn(C(C)(C)C)c(=O)n1CC(=O)NCC(F)(F)F,3.97
O=C(c1nc(COc2ccc3c(c2)OCO3)no1)N1CCCC1,13.69
COc1ccc(C)nc1NC(=O)CCc1c(C)nn(C)c1C,5.866
Cc1noc(C)c1CCC(=O)NC(C)c1nnc2n1CCC2 (stereo not shown),4.089
Cc1ccc(CN2CCN(C3CCC3)CC2CCO)o1 (stereo not shown),8.403
Cc1cnc(-c2nc(C3CCN(Cc4ccccc4O)CC3)no2)cn1,8.1
COCC1CN(S(=O)(=O)c2ccc(C)cc2)Cc2c1cnn2C (stereo not shown),9.058
COCC(Nc1nc(N(C)C)nc2c1CCNCC2)c1ccccn1 (stereo not shown),17.53
CN(C)c1cc(C(=O)N2CCCCC2CNS(C)(=O)=O)ccn1 (stereo not shown),24.86
O=c1[nH]c(N2CCCCC2)nc2nccc(-c3ccc4c(c3)OCO4)c12,8.571
CC(C)CN1C(=O)CO[C@@H]2CN(C(=O)N3CCOCC3)C[C@H]21,9.343
NCCc1n[nH]c(=O)n1-c1cccc2ccccc12,0
Cc1oncc1C(=O)N1CCC2(CCN(Cc3cccc(F)c3)C2=O)C1 (stereo not shown),21.47
Cc1nc(C)c(C(C)NCc2cnc(N3CCOCC3)nc2)s1 (stereo not shown),6.443
CSC(C)CCN1CCC(n2cc(C3CCCCC3)nn2)CC1 (stereo not shown),11.17
Cn1ccc(C(=O)N2CCC(Cc3cnc4[nH]ccc4c3)C2)n1 (stereo not shown),11.3
OCC1(Cc2ccc(F)cc2F)CCCN(Cc2ccncc2)C1 (stereo not shown),14.09
Cc1ccc(CNC(=O)N2CCCC(NS(C)(=O)=O)C2)cc1 (stereo not shown),10.5
O=C(Cc1csc(-c2ccccc2F)n1)NCc1cccc(C(=O)O)c1,17.54
CCC(C)n1c(SCC(=O)N2CCOCC2)nc2cc(C)[nH]c2c1=O (stereo not shown),4.665
Cc1ccc(CN2CCCC2(C(N)=O)c2cnccn2)c(C)c1 (stereo not shown),19.21
O=C(CCc1ccsc1)NCC1CCN(c2ccccc2)C1 (stereo not shown),15.04
CCC(=O)N1CCC2(CC1)CN(C(C)=O)c1ccc(C)cc12,8.759
OC(CNCCn1cccn1)c1ccc2c(c1)OCCO2 (stereo not shown),15.38
O=C(c1cc(=O)n(-c2ccccc2)[nH]1)N1CCCC(c2ccn[nH]2)C1 (stereo not shown),39.63
Cc1nnc(NCC2(c3ccc(Cl)cc3Cl)CCOCC2)c(C#N)c1C,12.68
Cc1cc(=O)c2cc(F)ccc2n1CC(=O)O,8.123
FC(F)(F)CCc1ccnc(NCc2csc(N3CCOCC3)n2)n1,21.64
CC(=O)NCCNC(=O)CN1CCCC1c1c(C)nn(C)c1C (stereo not shown),10.12
COc1nc2ccccc2cc1C1CC(=O)Nc2n[nH]c(C3CCC3)c21 (stereo not shown),19.63
Cc1noc(C)c1CN(C)C(=O)C1CCCc2ccccc21 (stereo not shown),4.42
CS(=O)(=O)N1CCN(C(=O)Cn2ccc3c(Cl)cccc32)CC1,9.63
Cc1cc(N2CCCC2(C)c2nc(C)cc(C(=O)N(C)C)n2)ncn1 (stereo not shown),12.73
Cc1cc(C(=O)N2CCC[C@]3(C[C@H](OCC4CC4)CO3)C2)no1,5.97
COc1cccc(-c2noc(C3CCN(CC(N)=O)C3)n2)c1 (stereo not shown),12.86
CNS(=O)(=O)c1ccc(CN(C)Cc2nc3ccc(F)cc3[nH]2)cc1,22.06
O=C([C@@H]1C[C@@H]2CCN(Cc3ccco3)C[C@H]2O1)N1CCCO1,14.18
O=C(CCCNC(=O)C1CC1)Nc1cnn(-c2ccccc2Cl)c1,15.56
O=C(Cn1cc(-c2ccccc2)ncc1=O)Nc1nccs1,19.27
Cc1oc(NC(=O)C(C)N2CCN(C(C)(C)CO)CC2)c(C#N)c1C (stereo not shown),11.59
COc1cc(N2C[C@H]3OCC[C@H]3[C@H](C(=O)N3CCCC3)C2)ncn1,10
Cc1nc2ccccc2c(=O)n1Cc1nnnn1C1CC1,8.156
Cc1nc(C2CCN(Cc3ncc[nH]3)CC2)no1,3.859
CCCS(=O)(=O)N1CCN(c2cc(-n3cnc(C)c3C)ncn2)CC1,2.837
CCN(CC)c1ccc(CNC(=O)c2ccccn2)cn1,-4.19
c1cncc(N2CCCC3(CCN(CCN4CCCC4)CC3)C2)c1,-1.918
Cc1ncsc1C(=O)NCCSCCCO,10.48
CC(C)(C)c1nc(CN2CCC(c3ccnn3CCO)CC2)no1,2.41
Fc1cnc(N2CCn3c(CN4CCCC4)nnc3C2)nc1,4.545

3 of the entries, repeated:

| Compound | inhibition |
|---|---|
| `Cn1ccc(C(=O)N2CCC(Cc3cnc4[nH]ccc4c3)C2)n1` (stereo not shown) | 11.3 |
| `NCCc1n[nH]c(=O)n1-c1cccc2ccccc12` | 0 |
| `COc1cc(CNC2CCc3nc(C)nn3C2)cc2c1OCCO2` (stereo not shown) | 7.087 |

Measurements from “University of Dundee, Small-Polar-MMV Screening Library” (2021), ChEMBL document CHEMBL3988442.